{"source": "patent US8158764B2", "about": "(priority 2006, dated 2012)", "test": "Tail flick test (analgesic activity)", "format": "in vivo, mouse", "parameters": "unit not given here", "method": "The “Tail flick” test (test of D'Amour & Smith, 1941, Pharmacol Exp Ther; 72: 74-79) consists in placing the tail of a mouse, after administration of a product, in front of an infrared source in order to produce a nociceptive stimulus (a surface temperature of 55° C.). The reaction time (RT) of the mouse (latency between the start of the light beam and the moment the mouse withdraws its tail) was measured in duplicate at 8 times spread from […] after administration of the product. A maximal 10 second-period has been chosen as the maximal reaction time in order to avoid any tissue damage for the animal.\nProducts were intravenously-administered at doses comprised between 0.5 and 8 mg/kg (8 mice per group).\nTwo measures of reaction time were realized before administration of the product for each mouse so as to establish a base line.\nThe MPE % represents the percentage of possible maximal effect and corresponds to the following formula: […]"}
{"smiles": "CN1CC[C@]23c4c5ccc(O)c4O[C@H]2[C@@H](O)C=C[C@H]3[C@H]1C5", "note": "[Morphine, reference compound]", "values": [{"measurement": "AUC, tail flick test", "setting": "dose 1.7 mg/Kg iv", "value": 60.62}, {"measurement": "AUC, tail flick test", "setting": "dose 3.4 mg/Kg iv", "value": 589.54}, {"measurement": "AUC, tail flick test", "setting": "dose 6.8 mg/Kg iv", "value": 1529.18}]}
